According to patent US5218089A, “Retro-inverso analogues of thymopentin and the method for their synthesis” (Sclavo S.p.A., priority 1988, dated 1993):
Not every detail of the peptide structures is certain; ends, links or a residue may be inferred.

System: lymphocytes which secrete antibodies (PFC)
Assay: Hemolysis plaque (PFC) test of Jerne and Nordin in SRBC-immunized mice
Type: in vivo, C3H/HeNCr1Br inbred male mice
Protocol: Specifically, hemolysis plates (PFC) were used for the test, which was conducted by the method described by Jerne and Nordin. The test was carried out by intravenously administering to C3H/HeNCr1Br inbred male mice (Calco-Italia) of 10-12 weeks and about 25 g body weight an apyrogenic saline solution (0.2 ml) containing 1-2×10^8 red blood cells from sheep (SRBC). After two hours, groups each containing 3 mice were treated orally (intragastric tube) with 0.2 ml of saline solution (control) or with 0.2 ml of saline solution containing 1 ng of peptide. After 4 days the mice were killed and the spleen withdrawn and dissociated mechanically to separate the lymphocytes. The thus isolated lymphocytes were washed with minimum essential medium (MEM) (3×15 ml) containing Earle's salts and then resuspended in the same medium (1 ml) at a final concentration of 150,000 cells. Each cell suspension (0.1 ml) was then diluted 1:100 with MEM, 100 μl of each dilution being doubly added to microplate wells containing 25 μl of MEM, 25 μl of a 10% solution of SRBC antigens and 25 μl of guinea pig complement at a final dilution of 1:64. The entire suspension was immediately transferred by capillarity from each well to superimposed slides. […]
At the end of this period the direct hemolysis plaques indicating the number of lymphocytes which secrete antibodies (PFC) are counted by a light contrast viewer.

In the case of `CC(C)C(C(=O)N[C@H](CC(=O)O)NC(=O)C(CCCCN)C(=O)N[C@@H](N)CCCNC(=N)N)C(=O)N[C@@H](Cc1ccc(O)cc1)C(=O)O` (some centres unmarked) [Example 1], the immunostimulating activity (in vivo, extremely low doses, compared with TP5 and the mono-retro-inverted analogue) is reported as “considerable immunostimulating activity” and the “Plaque formation % control” value (mice, 1 ng of peptide orally 2 hours after SRBC i.v., spleen lymphocytes after 4 days, IgM PFC) is reported as 219 % control.
